The assay is described as follows: qHTS Assay to Find Inhibitors of Chronic Active B-Cell Receptor Signaling. Conditions: ABC-DLBCL IkBa-CBG/CBR reporter, luminescence ratio (green luciferase fused to IkBa over red control in TMD8 lymphoma cells), 4 h. In short, it runs like this:
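Compounds up to 46 uM were incubated four hours with TMD8 cells whose green CBG68 luciferase is fused to IkappaBalpha; red CBR luminescence normalised the signal, and concentration-effect curves were fitted to fusion, red and ratio data.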
(Quantitative high-throughput screening tests each substance at several concentrations.)

[1] abbreviates: measured here: CBR red luminescence, cell number.
The mark [2] stands for this setting: measured here: IkBa-CBG green luminescence.

The other results are listed elsewhere or left out. Further columns of the screen follow, without active or inactive calls. Most of these compounds were active or inconclusive in the main read-out, so they are no random draw. Potencies come from curve fits of mixed quality, noted in brackets.

In general, AC50 refers to the concentration giving half of the maximal activity seen.

On to `COc1ccccc1N(C)S(=O)(=O)c1ccc(C)c(C(=O)Nc2nccs2)c1`, for which the concentration at half-maximal activity (AC50) under setting [1] was 1.84 µM [falling, partial curve, poor fit].
On the same count and under the same terms, then `NS(=O)(=O)c1ccc(NC(=O)COC(=O)c2cn(-c3ccccc3)nc2-c2ccccc2)cc1`, with 15.8 µM [rising, single point].
On the same count and under the same terms, then `O=C(CCl)N(C/C=C/c1ccccc1)c1ccc2c(c1)OCCO2`, with 3.55 µM [falling, full curve, poor fit]; and `CCOc1ccccc1CNC(=O)CCc1cn(CC)c2ccccc12`, with 15.8 µM [falling, single point].
Consider `Cc1ccc(NC(=O)CSCC(=O)OCc2cc(=O)oc3cc(O)ccc23)c(C)c1`, for which the concentration at half-maximal activity (AC50) under setting [1] is 32.6 µM [rising, partial curve, poor fit].
Still for that read-out and setting: the value for `Cc1ccc2nc(C3CCCN(C(=S)Nc4cccc(C)c4C)C3)[nH]c2c1` (configuration not stated) was 12.6 µM [falling, single point]; that for `Cc1ccc(S(=O)(=O)N2CCC(C(=O)NCc3ccccc3CN3CCCC3)CC2)cc1C` was 14.6 µM [falling, partial curve, poor fit].
`O=C(OCC#CCSc1nnc(-c2cccc3ccccc23)o1)c1ccc(Br)cc1`: the AC50 under setting [1] was 6.51 µM [rising, single point].
On the same count and under the same terms, then `CN1C(=O)C(C(=O)NC(C)(C)C)C2c3ccccc3OC13CCCCC23` (configuration not stated), with 0.708 µM [falling, full curve, poor fit]; and `NC(=O)C1CCN(c2nc(-c3cccs3)cs2)CC1`, with 20.6 µM [rising, single point].
In the case of `CCc1ccc2nc(SCC(=O)N3CC(=O)Nc4ccccc43)c(C#N)cc2c1`, the AC50 under setting [1] is 29.1 µM [rising, single point] and the half-maximal activity concentration (AC50) under setting [2] is 18.4 µM [falling, partial curve, poor fit].
Turning to `CC(=O)Cc1nsc(Nc2ccc(Cl)cc2)n1`, the concentration at half-maximal activity (AC50) under setting [1] is 35.5 µM [falling, single point].
Same read-out and setting: then `CN(C)S(=O)(=O)c1cccc(-c2cn3ccccc3n2)c1`, with 0.562 µM [falling, partial curve, poor fit].
Still for that read-out and setting: the value for `Cc1ccc(N(CC(=O)NCc2ccccc2Cl)S(=O)(=O)c2cccs2)cc1` was 29.1 µM [falling, single point]; that for `O=C(Nc1ccccc1)Nc1nc(-c2ccc(F)cc2)cs1` was 32.6 µM [falling, single point]; that for `CC(=O)Nc1cccc(OCC(=O)NC(C)C(C)C)c1` (configuration not stated) was 1.84 µM [falling, single point].
As to `N#CC1=C2SCC(O)(c3ccccc3)N2C(=O)CC1c1cccs1` (configuration not stated), the AC50 runs as follows: under setting [1], 35.5 µM [falling, single point]; under setting [2], 3.55 µM [falling, full curve].
`COC(=O)CSC(C(=O)Nc1ccc(C)c(C)c1)c1ccccc1` (configuration not stated): the AC50 under setting [1] was 10 µM [rising, partial curve].
The same measure, in the same setting: then `CC(C)(C)C(=O)N1CCN(c2nc3ccc(Cl)cc3s2)CC1`, with 14.1 µM [rising, partial curve, poor fit]; and `CCc1cc2c(SCC(=O)N(CC)c3c(N)n(Cc4ccccc4)c(=O)[nH]c3=O)ncnc2s1`, with 5.62 µM [rising, single point].
Still for that read-out and setting: then `O=c1c2cnn(-c3ccccc3)c2nnn1Cc1ccccn1`, with 20.6 µM [falling, single point].
Still for that read-out and setting: the value for `O=C(Nc1scc(-c2ccccc2)c1C(=O)O)c1ccc(F)cc1` was 11.2 µM [falling, partial curve].
On to `CCn1c(C(c2ccccc2)c2ccccc2)n[nH]c1=S`, for which the concentration at half-maximal activity (AC50) under setting [1] is 29.1 µM [falling, single point].
On the same count and under the same terms, the value for `Cn1c(=N)n(CC(=O)c2cccs2)c2ccccc21` was 2.82 µM [rising, full curve, poor fit]; that for `COc1ccccc1NC(=O)Nc1nc(C(C)(C)C)cs1` was 8.91 µM [falling, partial curve, poor fit].
The same measure, in the same setting: then `CCN(CC)c1ccc(NC(=O)COC(=O)CCC(=O)c2ccc(F)cc2)cc1`, with 23.1 µM [falling, partial curve, poor fit]; and `CC(CNc1nc2ccc(Cl)cc2n2cnnc12)c1ccccc1` (configuration not stated), with 0.562 µM [rising, full curve, poor fit].
For `COc1cc2c(cc1OC)CN(C(=O)c1ccc3nc[nH]c3c1)CC2`, the AC50 under setting [2] was 12.6 µM [falling, single point].
Turning to `CCOc1ccccc1-n1c(SCC(=O)Nc2nccs2)nnc1-c1ccoc1C`, under setting [1], the AC50 was 7.08 µM [falling, partial curve, poor fit].
On the same count and under the same terms, then `COc1ccc(CNC(=O)c2nc(S(=O)(=O)Cc3ccccc3)ncc2Cl)cc1`, with 2.82 µM [falling, full curve, poor fit].
On the same count and under the same terms, then `O=[N+]([O-])c1cccc(-c2csc(CS(=O)(=O)Cc3ccco3)n2)c1`, with 12.6 µM [rising, partial curve, poor fit]; and `Cc1cccc(OCCOCCN2CCOCC2)c1C`, with 3.66 µM [rising, partial curve].
On the same count and under the same terms, the value for `C/C(NCc1cccnc1)=C(\C#N)C(=O)NCc1ccccc1` was 7.94 µM [rising, partial curve, poor fit]; that for `O=C(c1cc2ccccc2oc1=O)N1CCN(S(=O)(=O)c2ccccc2)CC1` was 7.08 µM [rising, partial curve, poor fit]; that for `C/C(=N\NC(=O)c1ccc(Cl)c(Cl)c1)c1ccccn1` was 2 µM [rising, full curve].
Take `COc1ccccc1OCc1ccc(C(=O)n2nc(C)c(Cl)c2C)o1`: under setting [1], the concentration at half-maximal activity (AC50) is 0.00517 µM [falling, full curve, poor fit].
On the same count and under the same terms, the value for `CCCNCc1cc(OCC)c(OCC(=O)Nc2ccccc2)cc1Br` was 35.5 µM [falling, single point]; that for `Cc1ccsc1C1Nc2ccc3ncccc3c2C2=C1C(=O)CC(C)(C)C2` (configuration not stated) was 35.5 µM [falling, single point].
Same read-out and setting: the value for `O=C(O)CCCCCCCCCC(=O)c1cccs1` was 7.94 µM [falling, partial curve, poor fit]; that for `Cc1ccc(NC2=NC3(CCCCC3)N=C(N)N2)c(C)c1` was 32.6 µM [falling, partial curve, poor fit]; that for `O=C(CSc1nnc([C@@H]2CCCN2)o1)c1ccc(Cl)cc1` was 12.6 µM [rising, partial curve, poor fit].
Still for that read-out and setting: the value for `Cc1ccc(-n2c(SCC(=O)NC3CCCCC3)nc3c(c2=O)SCC3)cc1` was 20.6 µM [rising, single point].
On to `COc1ccc2[nH]c(-c3ccc(C)cc3)cc(=O)c2c1`, for which the AC50 under setting [1] was 2.91 µM [falling, partial curve, poor fit].
As to `O=C1NN(c2ccc(Br)cc2)C(=O)/C1=C\c1ccc(O)cc1O`, the AC50 under setting [1] is 0.398 µM [falling, full curve].
On to `CN(CC(=O)Nc1ccc(F)cc1Cl)Cc1cccs1`, for which, under setting [1], the AC50 is 15.8 µM [rising, partial curve, poor fit].
Regarding `CCOc1cccc(Nc2ccc([N+](=O)[O-])cn2)c1`, under setting [1], the AC50 was 4.47 µM [rising, full curve].
Still for that read-out and setting: then `O=C(NC1CCCCCC1)C1Cc2ccccc2CN1C(=O)c1ccco1` (configuration not stated), with 1.78 µM [falling, full curve]; and `CN(CC(=O)NC(=O)NC1CCCCC1)CC(=O)Nc1ccc(Cl)cc1`, with 23.1 µM [falling, single point].
Same read-out and setting: the value for `Oc1ccc2oc3c(c2c1C=NCc1ccncc1)CCCC3` was 12.6 µM [rising, partial curve, poor fit].
Same read-out and setting: then `COc1cc(CCC(=O)N2CCN(c3ccc([N+](=O)[O-])cc3)CC2)cc(OC)c1OC`, with 20 µM [falling, single point]; and `O=C(NCCc1ccc(O)c(O)c1)C1COc2ccccc2O1` (configuration not stated), with 8.91 µM [falling, partial curve, poor fit]; and `NC(=O)C1=C[C@H](C2CCCCC2)C[C@H](OCc2ccc(CO)cc2)O1`, with 6.31 µM [rising, single point].
Take `CCOC(=O)N1CCN(Cc2nnc(-c3cccc(Br)c3)o2)CC1`: the concentration at half-maximal activity (AC50) under setting [1] was 35.5 µM [rising, single point].
Consider `Cc1ccc(C)c(CN2CCCNC2=O)c1`, for which, under setting [1], the concentration at half-maximal activity (AC50) was 35.5 µM [rising, single point].
The same measure, in the same setting: the value for `COc1ccc(OC)c(NC(=O)CSc2nnc(CCCO)n2-c2ccccc2)c1` was 3.26 µM [falling, full curve, poor fit]; that for `CCCCN(CC)CCNC(=O)c1ccc2c(Cl)c3c(nc2c1)CCC3` was 1 µM [falling, full curve, poor fit].
The same measure, in the same setting: the value for `O=C(CSc1ccc2nnc(-c3ccccn3)n2n1)Nc1nccs1` was 1.12 µM [falling, full curve, poor fit]; that for `Cc1ccc(-n2c3c(cc(C(=O)NCc4ccco4)c2=O)C(=O)CCC3)cc1` was 6.31 µM [falling, single point].
On to `Cc1cc(C)cc(C(=O)OCC(=O)N2CCCCCC2)c1`, for which the concentration at half-maximal activity (AC50) under setting [1] was 16.4 µM [falling, partial curve].
On the same count and under the same terms, then `Cc1cc(C)n2nc(C(=O)Nc3ccc4c(c3)OCO4)nc2n1`, with 18.4 µM [falling, single point].
Still for that read-out and setting: then `Cc1ccc(C(=O)Nc2ccccc2C(=O)O)cc1NC(=O)COc1c(C)cccc1C`, with 0.708 µM [falling, full curve, poor fit].
The same measure, in the same setting: the value for `O=S(=O)(NCc1ccccc1F)NCc1ccccc1F` was 0.631 µM [rising, full curve, poor fit].
Take `Fc1cccc(Cl)c1Cc1noc(/C=C/c2ccccc2)n1`: under setting [1], the AC50 is 7.08 µM [rising, partial curve, poor fit].
Still for that read-out and setting: the value for `CCCn1nnc2sc3c(c2c1=O)CCC(C)C3` (configuration not stated) was 9.2 µM [rising, partial curve, poor fit].
Same read-out and setting: then `Cc1ccc(C)c(NC(=O)c2cc(-c3cc(C)c(C)cc3O)n[nH]2)c1`, with 1 µM [falling, full curve].

The values are drawn from PubChem BioAssay AID493014 (National Center for Advancing Translational Sciences (NCATS), 2011).
